{"source": "PubChem BioAssay AID504791 (Drosophila RNAi Screening Center, 2011)", "test": "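Factors in Argonaute-based small RNA production and activity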 (primary screen)", "cells": "Drosophila S2-derived reporter cells", "knock-down reagent": "long dsRNA against Drosophila genes, about 150-250 ng dsRNA per well (siRNA assay); about 80-120 ng (miRNA assay)", "timing": "about 5 days (siRNA assay); about 4 days (miRNA assay)", "challenge": "copper sulfate induction of reporters: 25 µM (siRNA assay); 200 mM stated (miRNA assay), 1-2 days before reading", "measurement": "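Dual luciferase assay: Renilla to firefly signal ratio in each well, scaled to the mean ratio of its plate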", "direction": "siRNA reporter hit score: higher = 3 marks a strong hit with raised ratio; -3 a strong hit with lowered ratio", "units": "stable assay Renilla, run 1 in luminescence; stable assay firefly, run 1 in luminescence", "active means": "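a well was a first-pass pick when its plate-scaled ratio rose above 1.5 (siRNA assay) or 1.6 (miRNA assay), or dropped below 0.6; a gene counted only if two separate dsRNAs agreed on retest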", "note": "In all, the deposit lists about 23,000 reagents; shown is an unselected part of those that have a named target and a result. In the full data, 199 (0.86%) are marked active. 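Plate-scaled ratios behind the calls are not deposited; printed light signals are raw; many rows marked increased or decreased are still called inactive.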 Entries without a mark were called inactive. A plus sign joins genes that one reagent is predicted to hit. No sequences are given here."}
{"gene knocked down": "CG13796 + CG31904", "amplicon": "DRSC22161", "stable assay Renilla, run 1": 9938, "stable assay firefly, run 1": 6.04e5}
{"gene knocked down": "Tango1 (Transport and Golgi organization 1)", "amplicon": "DRSC02127", "stable assay Renilla, run 1": 13816, "stable assay firefly, run 1": 8.00e5}
{"gene knocked down": "CG10809", "amplicon": "DRSC09802", "stable assay Renilla, run 1": 5851, "stable assay firefly, run 1": 4.09e5}
{"gene knocked down": "Hr51 (Hormone receptor 51)", "amplicon": "DRSC06627", "stable assay Renilla, run 1": 5314, "stable assay firefly, run 1": 2.72e5}
{"gene knocked down": "Hr51 (Hormone receptor 51)", "amplicon": "DRSC22829", "stable assay Renilla, run 1": 3615, "stable assay firefly, run 1": 3.62e5}
{"gene knocked down": "CG15142", "amplicon": "DRSC02443", "stable assay Renilla, run 1": 7002, "stable assay firefly, run 1": 3.41e5}
{"gene knocked down": "CG15283", "amplicon": "DRSC01980", "stable assay Renilla, run 1": 7271, "stable assay firefly, run 1": 3.55e5}
{"gene knocked down": "osp (outspread)", "amplicon": "DRSC01409", "stable assay Renilla, run 1": 5684, "stable assay firefly, run 1": 3.16e5}
{"gene knocked down": "osp (outspread)", "amplicon": "DRSC03585", "stable assay Renilla, run 1": 10410, "stable assay firefly, run 1": 1.03e6}
{"gene knocked down": "Cpr97Ea (Cuticular protein 97Ea)", "amplicon": "DRSC15974", "stable assay Renilla, run 1": 7022, "stable assay firefly, run 1": 3.73e5}
{"gene knocked down": "CG33966", "amplicon": "DRSC08256", "stable assay Renilla, run 1": 5952, "stable assay firefly, run 1": 3.72e5}
{"gene knocked down": "Rbbp5 + CG6434 (retired record)", "amplicon": "DRSC10635", "stable assay Renilla, run 1": 9321, "stable assay firefly, run 1": 6.04e5}
{"gene knocked down": "CG11756", "amplicon": "DRSC19424", "siRNA reporter hit score": 3, "stable assay Renilla, run 1": 5487, "stable assay firefly, run 1": 4.27e5}
{"gene knocked down": "Gos28 (Golgi SNARE, 28 kDa)", "amplicon": "DRSC16292", "stable assay Renilla, run 1": 7384, "stable assay firefly, run 1": 3.58e5}
{"gene knocked down": "Gos28 (Golgi SNARE, 28 kDa)", "amplicon": "DRSC22859", "stable assay Renilla, run 1": 5367, "stable assay firefly, run 1": 4.82e5}
{"gene knocked down": "CG10588", "amplicon": "DRSC11628", "stable assay Renilla, run 1": 6599, "stable assay firefly, run 1": 4.25e5}

Entries above whose target name starts with O or o (2):
{"gene knocked down": "osp (outspread)", "amplicon": "DRSC01409", "stable assay Renilla, run 1": 5684, "stable assay firefly, run 1": 3.16e5}
{"gene knocked down": "osp (outspread)", "amplicon": "DRSC03585", "stable assay Renilla, run 1": 10410, "stable assay firefly, run 1": 1.03e6}

Next reagents follow.
{"gene knocked down": "mi (minus)", "amplicon": "DRSC04498", "stable assay Renilla, run 1": 4.05e5, "stable assay firefly, run 1": 3.34e5}
{"gene knocked down": "mi (minus)", "amplicon": "DRSC29425", "miRNA reporter change": "reporter ratio raised past the hit cutoff"}
{"gene knocked down": "Cyp4d21 (Cytochrome P450 4d21)", "amplicon": "DRSC03305", "stable assay Renilla, run 1": 2.03e5, "stable assay firefly, run 1": 1.14e5}
{"gene knocked down": "CG9286", "amplicon": "DRSC16467", "stable assay Renilla, run 1": 10585, "stable assay firefly, run 1": 4.87e5}
{"gene knocked down": "CG1239", "amplicon": "DRSC12204", "stable assay Renilla, run 1": 11252, "stable assay firefly, run 1": 5.68e5}
{"gene knocked down": "Spn27A (Serpin 27A)", "amplicon": "DRSC03608", "stable assay Renilla, run 1": 7150, "stable assay firefly, run 1": 3.87e5}
{"gene knocked down": "Tsp97E (Tetraspanin 97E)", "amplicon": "DRSC16019", "stable assay Renilla, run 1": 7727, "stable assay firefly, run 1": 4.23e5}
{"gene knocked down": "CG14011", "amplicon": "DRSC02343", "stable assay Renilla, run 1": 7362, "stable assay firefly, run 1": 3.96e5}
{"gene knocked down": "l(3)72Dp (lethal (3) 72Dp)", "amplicon": "DRSC10477", "stable assay Renilla, run 1": 6927, "stable assay firefly, run 1": 3.15e5}
{"gene knocked down": "Rab5", "amplicon": "DRSC00777", "stable assay Renilla, run 1": 13460, "stable assay firefly, run 1": 3.07e5}
{"gene knocked down": "Tgt (tRNA-guanine transglycosylase)", "amplicon": "DRSC00672", "stable assay Renilla, run 1": 9801, "stable assay firefly, run 1": 1.67e5}
{"gene knocked down": "CG31546", "amplicon": "DRSC12317", "stable assay Renilla, run 1": 8413, "stable assay firefly, run 1": 3.43e5}
